Reference: PMC6158461
These are yes or no findings as the source states them, for the method shown. In cells and extracts the contact can be indirect. Binding calls can cover weak binding; strength is not graded here. Where a sequence is shown, tags or fusion partners need not be part of it.

Chains of the proteins cited; added tags and fusions are not shown. Lines headed by an entry give the natural chain unless they say otherwise; changes in a name come on top.
UniProt Q9HYR1: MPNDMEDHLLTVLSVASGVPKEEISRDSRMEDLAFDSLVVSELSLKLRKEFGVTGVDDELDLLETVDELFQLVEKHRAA

Molecular target: T1, His-tagged KatA (from plasmid pEXHTB-katA) (P. aeruginosa) (UniProt O52762)
T1 sequence: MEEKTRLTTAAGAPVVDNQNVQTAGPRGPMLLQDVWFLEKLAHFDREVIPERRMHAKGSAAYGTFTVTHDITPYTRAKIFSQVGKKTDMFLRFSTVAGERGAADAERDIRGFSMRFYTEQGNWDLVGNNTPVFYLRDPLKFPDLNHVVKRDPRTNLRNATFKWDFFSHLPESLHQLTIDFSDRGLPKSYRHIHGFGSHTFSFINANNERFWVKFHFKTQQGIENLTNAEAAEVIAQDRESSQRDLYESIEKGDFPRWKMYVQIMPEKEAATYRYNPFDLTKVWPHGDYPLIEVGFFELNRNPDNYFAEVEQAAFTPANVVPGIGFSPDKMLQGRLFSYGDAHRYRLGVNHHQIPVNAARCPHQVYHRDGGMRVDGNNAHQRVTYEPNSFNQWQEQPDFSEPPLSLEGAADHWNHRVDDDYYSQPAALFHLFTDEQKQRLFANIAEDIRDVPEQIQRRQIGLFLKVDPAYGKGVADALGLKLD
Assay: pull-down; reverse pull-down: His-KatA expressed from pEXHTB-katA in strain CW21 (Acp3-SPA); lysate over Ni2+-NTA agarose; Acp3 in the eluate detected by anti-FLAG M2 western blot; empty vector pEXHTB as control

binding: binds
Substance: Acp3 with C-terminal SPA tag (strain CW21) (from UniProt Q9HYR1)
